Data as given in article PMC5840266.

The chains behind the UniProt entries cited, without tags or fusion partners.
UniProt Q9ULT8: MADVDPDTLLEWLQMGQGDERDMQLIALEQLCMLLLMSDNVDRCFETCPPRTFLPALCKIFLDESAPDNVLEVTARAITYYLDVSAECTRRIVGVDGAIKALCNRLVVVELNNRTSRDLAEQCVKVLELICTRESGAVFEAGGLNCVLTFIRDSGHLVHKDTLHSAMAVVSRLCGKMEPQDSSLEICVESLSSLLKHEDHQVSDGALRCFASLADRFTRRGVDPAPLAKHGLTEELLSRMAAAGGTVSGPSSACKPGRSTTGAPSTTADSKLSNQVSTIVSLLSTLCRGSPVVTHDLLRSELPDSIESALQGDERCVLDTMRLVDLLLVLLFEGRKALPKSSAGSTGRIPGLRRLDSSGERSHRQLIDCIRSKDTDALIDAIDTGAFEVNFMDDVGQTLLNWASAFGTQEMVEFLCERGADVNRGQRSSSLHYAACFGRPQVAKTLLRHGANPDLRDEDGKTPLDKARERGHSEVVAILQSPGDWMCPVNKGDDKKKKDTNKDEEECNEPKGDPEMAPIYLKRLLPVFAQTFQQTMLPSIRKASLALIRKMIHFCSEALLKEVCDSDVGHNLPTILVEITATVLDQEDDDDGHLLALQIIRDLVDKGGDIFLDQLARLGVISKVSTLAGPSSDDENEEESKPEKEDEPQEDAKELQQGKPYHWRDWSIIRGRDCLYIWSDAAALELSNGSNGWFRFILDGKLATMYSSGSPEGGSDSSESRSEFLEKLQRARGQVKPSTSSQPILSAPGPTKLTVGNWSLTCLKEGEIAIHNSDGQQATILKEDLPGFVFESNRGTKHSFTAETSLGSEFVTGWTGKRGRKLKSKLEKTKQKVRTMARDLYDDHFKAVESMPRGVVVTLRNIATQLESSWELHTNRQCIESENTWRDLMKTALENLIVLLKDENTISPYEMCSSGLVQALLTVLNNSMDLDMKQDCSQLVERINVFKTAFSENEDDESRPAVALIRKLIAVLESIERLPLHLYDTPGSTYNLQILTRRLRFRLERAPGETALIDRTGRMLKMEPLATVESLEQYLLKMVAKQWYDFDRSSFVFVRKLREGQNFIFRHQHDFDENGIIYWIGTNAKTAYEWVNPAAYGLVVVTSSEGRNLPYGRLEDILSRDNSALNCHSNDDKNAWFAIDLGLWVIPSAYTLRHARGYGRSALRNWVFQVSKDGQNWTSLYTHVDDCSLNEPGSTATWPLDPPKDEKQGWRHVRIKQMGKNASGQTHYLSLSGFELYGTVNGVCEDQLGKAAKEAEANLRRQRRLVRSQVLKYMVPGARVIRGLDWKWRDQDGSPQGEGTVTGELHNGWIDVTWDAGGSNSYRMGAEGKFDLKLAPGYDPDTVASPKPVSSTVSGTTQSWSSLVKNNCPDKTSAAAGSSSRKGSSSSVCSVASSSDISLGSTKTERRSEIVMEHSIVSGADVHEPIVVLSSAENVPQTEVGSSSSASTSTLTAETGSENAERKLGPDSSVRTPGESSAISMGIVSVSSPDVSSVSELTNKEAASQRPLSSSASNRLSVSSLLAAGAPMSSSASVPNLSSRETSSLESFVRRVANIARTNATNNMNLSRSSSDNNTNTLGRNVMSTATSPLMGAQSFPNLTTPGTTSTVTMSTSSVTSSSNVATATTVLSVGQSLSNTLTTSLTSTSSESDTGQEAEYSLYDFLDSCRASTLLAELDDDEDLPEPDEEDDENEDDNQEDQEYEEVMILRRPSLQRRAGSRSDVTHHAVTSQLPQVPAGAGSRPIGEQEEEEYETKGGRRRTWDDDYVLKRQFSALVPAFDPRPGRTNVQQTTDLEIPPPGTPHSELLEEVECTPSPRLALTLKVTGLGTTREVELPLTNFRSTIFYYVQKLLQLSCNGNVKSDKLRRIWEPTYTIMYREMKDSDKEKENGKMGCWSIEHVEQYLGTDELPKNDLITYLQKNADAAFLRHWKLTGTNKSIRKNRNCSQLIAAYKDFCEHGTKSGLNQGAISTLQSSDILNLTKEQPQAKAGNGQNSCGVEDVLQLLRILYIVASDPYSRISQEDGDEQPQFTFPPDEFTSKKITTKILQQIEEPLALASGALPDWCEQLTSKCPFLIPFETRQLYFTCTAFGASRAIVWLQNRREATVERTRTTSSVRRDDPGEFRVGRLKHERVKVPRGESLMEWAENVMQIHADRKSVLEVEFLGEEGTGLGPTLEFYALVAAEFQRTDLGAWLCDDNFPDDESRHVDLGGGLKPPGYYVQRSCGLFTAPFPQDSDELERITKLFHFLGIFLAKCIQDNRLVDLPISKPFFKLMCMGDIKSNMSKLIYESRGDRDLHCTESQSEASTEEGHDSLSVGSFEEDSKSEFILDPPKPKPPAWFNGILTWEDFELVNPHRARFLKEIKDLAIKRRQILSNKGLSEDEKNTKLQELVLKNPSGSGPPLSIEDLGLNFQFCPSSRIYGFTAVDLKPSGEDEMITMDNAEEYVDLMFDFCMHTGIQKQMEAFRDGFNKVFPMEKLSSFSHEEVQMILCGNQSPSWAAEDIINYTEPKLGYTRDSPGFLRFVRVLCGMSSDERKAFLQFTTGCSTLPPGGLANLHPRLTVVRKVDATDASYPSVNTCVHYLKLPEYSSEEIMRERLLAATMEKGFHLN
UniProt Q9P0J7: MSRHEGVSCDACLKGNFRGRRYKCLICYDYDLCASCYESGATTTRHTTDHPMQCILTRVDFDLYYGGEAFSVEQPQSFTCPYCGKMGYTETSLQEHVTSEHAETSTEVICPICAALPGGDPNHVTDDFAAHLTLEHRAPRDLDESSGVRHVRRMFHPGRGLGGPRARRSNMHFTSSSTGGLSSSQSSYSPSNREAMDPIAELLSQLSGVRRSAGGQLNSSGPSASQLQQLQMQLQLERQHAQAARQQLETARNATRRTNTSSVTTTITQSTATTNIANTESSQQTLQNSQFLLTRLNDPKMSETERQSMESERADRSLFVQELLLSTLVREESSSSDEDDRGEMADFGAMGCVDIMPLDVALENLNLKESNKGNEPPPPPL
UniProt P61163: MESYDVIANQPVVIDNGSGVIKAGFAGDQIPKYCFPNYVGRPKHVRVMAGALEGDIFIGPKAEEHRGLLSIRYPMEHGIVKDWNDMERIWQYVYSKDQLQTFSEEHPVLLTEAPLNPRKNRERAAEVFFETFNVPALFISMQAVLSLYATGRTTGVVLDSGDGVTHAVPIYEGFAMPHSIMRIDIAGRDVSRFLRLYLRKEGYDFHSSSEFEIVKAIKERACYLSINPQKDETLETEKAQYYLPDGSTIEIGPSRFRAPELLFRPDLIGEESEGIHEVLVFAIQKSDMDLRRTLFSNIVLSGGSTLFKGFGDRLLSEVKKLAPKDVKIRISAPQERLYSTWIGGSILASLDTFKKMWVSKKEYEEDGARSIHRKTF
UniProt Q14203: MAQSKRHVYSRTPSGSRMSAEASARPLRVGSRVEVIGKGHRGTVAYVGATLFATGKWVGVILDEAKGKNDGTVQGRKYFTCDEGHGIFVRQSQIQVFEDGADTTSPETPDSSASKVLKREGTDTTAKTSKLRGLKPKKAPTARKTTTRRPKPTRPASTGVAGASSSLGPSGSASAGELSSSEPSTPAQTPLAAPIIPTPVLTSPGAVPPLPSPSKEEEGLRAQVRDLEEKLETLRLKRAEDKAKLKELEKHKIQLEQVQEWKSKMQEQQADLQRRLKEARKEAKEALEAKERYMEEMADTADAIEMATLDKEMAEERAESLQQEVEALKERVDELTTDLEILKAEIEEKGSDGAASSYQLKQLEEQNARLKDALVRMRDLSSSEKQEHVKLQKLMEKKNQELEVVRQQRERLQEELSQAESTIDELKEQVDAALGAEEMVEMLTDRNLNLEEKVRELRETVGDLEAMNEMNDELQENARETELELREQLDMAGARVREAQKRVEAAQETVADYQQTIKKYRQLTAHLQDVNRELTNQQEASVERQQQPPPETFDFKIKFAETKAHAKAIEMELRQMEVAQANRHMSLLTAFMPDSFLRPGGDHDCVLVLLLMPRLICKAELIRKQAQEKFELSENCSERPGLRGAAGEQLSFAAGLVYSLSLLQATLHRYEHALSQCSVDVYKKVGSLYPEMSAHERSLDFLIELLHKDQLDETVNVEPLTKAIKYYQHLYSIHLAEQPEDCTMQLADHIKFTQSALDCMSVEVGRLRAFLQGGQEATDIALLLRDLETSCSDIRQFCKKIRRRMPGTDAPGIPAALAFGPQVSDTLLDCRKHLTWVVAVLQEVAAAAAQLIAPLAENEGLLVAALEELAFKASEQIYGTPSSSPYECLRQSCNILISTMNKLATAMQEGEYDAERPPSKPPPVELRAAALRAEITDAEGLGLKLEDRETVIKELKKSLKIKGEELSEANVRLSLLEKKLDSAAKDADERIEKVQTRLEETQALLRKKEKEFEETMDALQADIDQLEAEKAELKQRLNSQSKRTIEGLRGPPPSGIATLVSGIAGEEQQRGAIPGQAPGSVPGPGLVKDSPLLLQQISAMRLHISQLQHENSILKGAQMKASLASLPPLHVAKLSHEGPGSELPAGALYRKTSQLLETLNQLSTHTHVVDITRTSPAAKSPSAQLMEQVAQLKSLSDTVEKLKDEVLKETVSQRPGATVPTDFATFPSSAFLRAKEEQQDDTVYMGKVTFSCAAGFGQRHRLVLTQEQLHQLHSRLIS
UniProt Q13561: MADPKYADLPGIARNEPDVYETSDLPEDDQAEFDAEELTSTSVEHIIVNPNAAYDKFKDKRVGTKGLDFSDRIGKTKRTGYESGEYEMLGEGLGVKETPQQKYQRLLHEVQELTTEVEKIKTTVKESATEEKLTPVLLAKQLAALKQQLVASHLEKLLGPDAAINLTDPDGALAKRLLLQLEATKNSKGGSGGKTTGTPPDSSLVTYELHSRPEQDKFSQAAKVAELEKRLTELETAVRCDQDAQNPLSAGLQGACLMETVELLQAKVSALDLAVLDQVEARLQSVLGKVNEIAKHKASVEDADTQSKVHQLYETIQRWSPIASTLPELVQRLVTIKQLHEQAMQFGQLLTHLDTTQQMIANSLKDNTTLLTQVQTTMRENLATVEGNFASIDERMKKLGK

Columns and labels:
[1] = biological target: T1, RNF181 (human (endogenous in H9 hESCs)) (UniProt Q9P0P0); test: affinity purification with mass spectrometry; endogenous E3 (HERC2, HECTD1, RNF181, KCMF1 or UBR7) immunoprecipitated with its antibody (4 µg, 30 minutes on ice) from 330 µg H9 hESC RIPA lysate (50 mM Tris-HCl pH 6.7, 150 mM NaCl, 1% Triton x-100, 1% sodium deoxycholate, 1 mM EDTA), µMACS Micro Beads; control co-IP with anti-FLAG antibody; label-free LC-MS/MS, FDR < 0.2; no RNase
T1 sequence: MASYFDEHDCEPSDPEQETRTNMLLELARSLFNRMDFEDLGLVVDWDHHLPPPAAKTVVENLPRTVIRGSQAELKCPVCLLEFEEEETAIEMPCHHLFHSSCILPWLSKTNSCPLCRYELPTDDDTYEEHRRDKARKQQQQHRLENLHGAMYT

[2] = biological target: T1, RNF181 (human (endogenous in H9 hESCs)); test: affinity purification with mass spectrometry; co-immunoprecipitation of endogenous HECTD1 or RNF181 from neurons differentiated from H9 hESCs, label-free MS, FDR < 0.2
[3] = biological target: UBE3A (human (endogenous in H9 hESCs)) (UniProt Q05086); test: affinity purification with mass spectrometry; endogenous UBE3A immunoprecipitated overnight at 4 °C from precleared H9 hESC RIPA lysate (50 mM Tris-HCl pH 7.4, 150 mM NaCl, 1% Triton x-100, 1% sodium deoxycholate, 0.1% SDS, 1 mM EDTA), Protein A beads; control with anti-FLAG antibody; label-free LC-MS/MS, FDR < 0.2
[4] = biological target: HECTD1 (human (endogenous in H9 hESCs)) (UniProt Q9ULT8); test: affinity purification with mass spectrometry; co-immunoprecipitation of endogenous HECTD1 from NPCs differentiated from H9 hESCs (n = 3), label-free MS, FDR < 0.2
[5] = biological target: T2, UBR7 (human (endogenous in H9 hESCs)) (UniProt Q8N806); test: affinity purification with mass spectrometry; endogenous E3 (HERC2, HECTD1, RNF181, KCMF1 or UBR7) immunoprecipitated with its antibody (4 µg, 30 minutes on ice) from 330 µg H9 hESC RIPA lysate (50 mM Tris-HCl pH 6.7, 150 mM NaCl, 1% Triton x-100, 1% sodium deoxycholate, 1 mM EDTA), µMACS Micro Beads; control co-IP with anti-FLAG antibody; label-free LC-MS/MS, FDR < 0.2; no RNase
T2 sequence: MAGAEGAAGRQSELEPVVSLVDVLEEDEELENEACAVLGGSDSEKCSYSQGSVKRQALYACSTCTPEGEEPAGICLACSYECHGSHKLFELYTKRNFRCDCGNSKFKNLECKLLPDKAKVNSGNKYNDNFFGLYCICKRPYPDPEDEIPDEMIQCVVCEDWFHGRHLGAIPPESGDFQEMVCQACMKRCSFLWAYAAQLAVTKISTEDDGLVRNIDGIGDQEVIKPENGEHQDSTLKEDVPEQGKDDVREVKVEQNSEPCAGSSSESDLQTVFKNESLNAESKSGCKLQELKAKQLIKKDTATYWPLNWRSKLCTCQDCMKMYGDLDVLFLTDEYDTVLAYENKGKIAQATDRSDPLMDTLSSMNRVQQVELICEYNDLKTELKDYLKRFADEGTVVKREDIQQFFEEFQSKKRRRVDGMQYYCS

[6] = biological target: HECTD1 (human (endogenous in H9 hESCs)) (UniProt Q9ULT8); test: as above
[7] = biological target: HECTD1 (human (endogenous in H9 hESCs)) (UniProt Q9ULT8); test: affinity purification with mass spectrometry; co-immunoprecipitation of endogenous HECTD1 or RNF181 from neurons differentiated from H9 hESCs, label-free MS, FDR < 0.2
[8] = biological target: KCMF1 (human (endogenous in H9 hESCs)) (UniProt Q9P0J7); test: affinity purification with mass spectrometry; endogenous E3 (HERC2, HECTD1, RNF181, KCMF1 or UBR7) immunoprecipitated with its antibody (4 µg, 30 minutes on ice) from 330 µg H9 hESC RIPA lysate (50 mM Tris-HCl pH 6.7, 150 mM NaCl, 1% Triton x-100, 1% sodium deoxycholate, 1 mM EDTA), µMACS Micro Beads; control co-IP with anti-FLAG antibody; label-free LC-MS/MS, FDR < 0.2; no RNase
[9] = biological target: HERC2 (human (endogenous in H9 hESCs)), O95714; test: as above; conditions: remark: other sources report otherwise

ACTR1A (from UniProt P61163 1-376) was tested, and the binding [1] was “binds” and the binding [2] was “binds”.

AHNAK (from UniProt Q09666 1-5890) was tested, and the binding [3] was “binds”.

In the case of DCTN1 (from UniProt Q14203 1-1278), the binding [1] is reported as “binds” and the binding [2] is reported as “binds”.

In the case of DCTN2 (from UniProt Q13561 1-401), the binding [1] is reported as “binds” and the binding [2] is reported as “binds”.

B1: PDHB (protein, UniProt P11177 31-359)
chain: LQVTVRDAINQGMDEELERDEKVFLLGEEVAQYDGAYKVSRGLWKKYGDKRIIDTPISEMGFAGIAVGAAMAGLRPICEFMTFNFSMQAIDQVINSAAKTYYMSGGLQPVPIVFRGPNGASAGVAAQHSQCFAAWYGHCPGLKVVSPWNSEDAKGLIKSAIRDNNPVVVLENELMYGVPFEFPPEAQSKDFLIPIGKAKIERQGTHITVVSHSRPVGHCLEAAAVLSKEGVECEVINMRTIRPMDMETIEASVMKTNHLVTVEGGWPQFGVGAEICARIMEGPAFNFLDAPAVRVTGADVPMPYAKILEDNSIPQVKDIIFAIKKTLNI
With B1 the binding [4] was “binds”, the binding [5] was “binds” and the binding [6] was “binds”. For the same molecule, the binding [7] was “binds”.

B2: HMMR (protein, UniProt O75330 1-724)
chain: MSFPKAPLKRFNDPSGCAPSPGAYDVKTLEVLKGPVSFQKSQRFKQQKESKQNLNVDKDTTLPASARKVKSSESKESQKNDKDLKILEKEIRVLLQERGAQDRRIQDLETELEKMEARLNAALREKTSLSANNATLEKQLIELTRTNELLKSKFSENGNQKNLRILSLELMKLRNKRETKMRGMMAKQEGMEMKLQVTQRSLEESQGKIAQLEGKLVSIEKEKIDEKSETEKLLEYIEEISCASDQVEKYKLDIAQLEENLKEKNDEILSLKQSLEENIVILSKQVEDLNVKCQLLEKEKEDHVNRNREHNENLNAEMQNLKQKFILEQQEREKLQQKELQIDSLLQQEKELSSSLHQKLCSFQEEMVKEKNLFEEELKQTLDELDKLQQKEEQAERLVKQLEEEAKSRAEELKLLEEKLKGKEAELEKSSAAHTQATLLLQEKYDSMVQSLEDVTAQFESYKALTASEIEDLKLENSSLQEKAAKAGKNAEDVQHQILATESSNQEYVRMLLDLQTKSALKETEIKEITVSFLQKITDLQNQLKQQEEDFRKQLEDEEGRKAEKENTTAELTEEINKWRLLYEELYNKTKPFQLQLDAFEVEKQALLNEHGAAQEQLNKIRDSYAKLLGHQNLKQKIKHVVKLKDENSQLKSEVSKLRCQLAKKKQSETKLQEELNKVLGIKHFDPSKAFHHESKENFALKTPLKEGNTNCYRAPMECQESWK
B2 was tested, and the binding [8] was “binds”.

B3: SAE1 (protein, UniProt Q9UBE0 1-346)
chain: MVEKEEAGGGISEEEAAQYDRQIRLWGLEAQKRLRASRVLLVGLKGLGAEIAKNLILAGVKGLTMLDHEQVTPEDPGAQFLIRTGSVGRNRAEASLERAQNLNPMVDVKVDTEDIEKKPESFFTQFDAVCLTCCSRDVIVKVDQICHKNSIKFFTGDVFGYHGYTFANLGEHEFVEEKTKVAKVSQGVEDGPDTKRAKLDSSETTMVKKKVVFCPVKEALEVDWSSEKAKAALKRTTSDYFLLQVLLKFRTDKGRDPSSDTYEEDSELLLQIRNDVLDSLGISPDLLPEDFVRYCFSEMAPVCAVVGGILAQEIVKALSQRDPPHNNFFFFDGMKGNGIVECLGPK
For B3, the binding [3] was “binds”.

B4: UBE3A, Q05086 1-875 (enzyme)
chain: MEKLHQCYWKSGEPQSDDIEASRMKRAAAKHLIERYYHQLTEGCGNEACTNEFCASCPTFLRMDNNAAAIKALELYKINAKLCDPHPSKKGASSAYLENSKGAPNNSCSEIKMNKKGARIDFKDVTYLTEEKVYEILELCREREDYSPLIRVIGRVFSSAEALVQSFRKVKQHTKEELKSLQAKDEDKDEDEKEKAACSAAAMEEDSEASSSRIGDSSQGDNNLQKLGPDDVSVDIDAIRRVYTRLLSNEKIETAFLNALVYLSPNVECDLTYHNVYSRDPNYLNLFIIVMENRNLHSPEYLEMALPLFCKAMSKLPLAAQGKLIRLWSKYNADQIRRMMETFQQLITYKVISNEFNSRNLVNDDDAIVAASKCLKMVYYANVVGGEVDTNHNEEDDEEPIPESSELTLQELLGEERRNKKGPRVDPLETELGVKTLDCRKPLIPFEEFINEPLNEVLEMDKDYTFFKVETENKFSFMTCPFILNAVTKNLGLYYDNRIRMYSERRITVLYSLVQGQQLNPYLRLKVRRDHIIDDALVRLEMIAMENPADLKKQLYVEFEGEQGVDEGGVSKEFFQLVVEEIFNPDIGMFTYDESTKLFWFNPSSFETEGQFTLIGIVLGLAIYNNCILDVHFPMVVYRKLMGKKGTFRDLGDSHPVLYQSLKDLLEYEGNVEDDMMITFQISQTDLFGNPMMYDLKENGDKIPITNENRKEFVNLYSDYILNKSVEKQFKAFRRGFHMVTNESPLKYLFRPEEIELLICGSRNLDFQALEETTEYDGGYTRDSVLIREFWEIVHSFTDEQKRLFLQFTTGTDRAPVGGLGKLKMIIAKNGPDTERLPTSHTCFNVLLLPEYSSKEKLKERLLKAITYAKGFGML
B4 was tested, and the binding [9] was “no binding”.

These are yes or no findings as the source states them, for the method shown. Binding seen in cells or lysates may run through a third protein. Here binding means that the protein was enriched with, or labelled near, the bait; the list need not be complete. For some assays here: A no says only that the protein was not detected with the bait.
